Paper PMC5628898, “Does consumption of red grapefruit juice alter naringenin concentrations in milk produced by breastfeeding mothers?” (PLoS ONE, 2017)
The source gives many values for each of these; only a part stands here.

Test: Naringenin concentration in milk of breastfeeding mothers on naringenin-restricted diet, before and after 250 ml red grapefruit juice (HPLC after deconjugation)
Conditions: female, in vivo
Source text: Prior to enrollment, each volunteer was informed about the course and aim of the study, and signed the informed consent. They were also provided with oral and written instructions on the diet that disallowed consumption of any naringenin-containing foods and beverages. The volunteers agreed to follow the diet and not to take any vitamin supplements or any other food supplements for the duration of their participation in the study. They followed the diet for a total of 5 days, refraining from eating foods containing larger quantities of naringenin, such as citrus fruits, citrus fruit juices, citrus fruit pulps, tomatoes and tomato-containing food products, aromatic herbs. For the first two days of the study (pre-exposure) the volunteers collected breast milk samples every 12 hours, each in the amount of four to six ml. On the third day of the study they drank a single 250 ml serving of red grapefruit juice (a 250 ml bottle) in the morning on an empty stomach. In this part of the experiment, the volunteers collected breast milk samples at the following time points: 0 (directly before drinking the juice) and 1, 2, 3, 4, 5, 6, 12, 18, 24, 36 hours post-exposure. Milk samples were collected from full breasts. Milk was collected into chemically pure disposable plastic test tubes.
The samples were frozen by the volunteers at –20°C, regularly collected from the volunteers by the investigator, transported in a laboratory deep freezer, and frozen to –80°C until analysis. Each sample was labelled with the volunteer's initials and with the date and time of sampling. During the study, we remained in constant telephone contact with the volunteers. A commercial 100% grapefruit juice originating from ecological farms in Israel, in 250 ml bottles, were used in the study. […]
Naringenin analysis was done on a Shimadzu HPLC system (Kyoto, Japan), equipped with binary pump (LC-20 AD), degasser (DGU-20A3), refrigerated autosampler (SIL-20 AC, set at 8°C), a column oven (CTO-20 AC, 30°C), a diode array detector (SPD-M20A) and a mass spectrometry detector (2010EV). […] Naringenin was quantified at 287 nm. […]

O=C1C[C@@H](c2ccc(O)cc2)Oc2cc(O)cc(O)c21 [naringenin]
Mean naringenin concentration in human milk (0 h): 673.886 nmol/L | Mean naringenin concentration in human milk (36 h): 701.592 nmol/L | Mean naringenin concentration in human milk (-48 h): 823.235 nmol/L
